# Data reported in the supplement of paper PMC10338343.
# ± gives the standard deviation. The entries are a selection whose mix differs from that of the whole data set. Many of these values have a large error.
# System: MILI (PIWIL2) piRISC loaded with L1MC piRNA (26 nt)
# Test: pre-steady-state target cleavage rate (min^-1); MIWI and MILI are mouse PIWI proteins and EfPiwi is from a freshwater sponge; tags in brackets are library labels; higher = faster piRNA-guided slicing of the target
# Conditions: guide: L1MC piRNA 5'p-UAACUAAAUACUAUGCAAGCUGUAGG; auxiliary factor: 500 nM mouse GTSF1
# Method: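 Cleave-'n-Seq: a library of target RNAs (target site embedded in constant flanks, ACAGCATTCCGCGTTAGTGATATCCG... 5' flank; DNA-blocked outside the site) at 0.1 nM was incubated with 1 nM active mouse MILI or MIWI piRISC (synthetic 5'-monophosphorylated piRNA guide) with or without 500 nM mouse GTSF1 at 33 °C for 1 min to 16 h. Uncleaved targets were sequenced and normalised to non-target controls, and the pooled three trials were fitted to a burst-and-steady-state model to give the pre-steady-state cleavage rate (min^-1; k3 is constrained to at most 1e-4). Sequence is the target site only; target names encode pairing extent (gX:gY) and contiguous / 1-mismatch / 2-mismatch / bulge geometry. Fits with R² ≤ 0 are excluded.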
row,Sequence,pre-steady-state target cleavage rate
1,UCCUGGAUGUCGAACCAUAGUUUUUAGUAA,0.000226 ± 0.021
2,UCCUGGAUGUCGAUGCAUAGUUUUUAGAUA,0.000872 ± 0.011
3,UCCUGGAUGUCGAAGCAUAGUAUUUCGUUA,0.00855 ± 0.0046
4,UCCUGGAUGUCCUUAGCAUAGUAUUUAGUUA,0.0724 ± 0.016
5,UCCUGCUACUCCUUGCAUAGUAUUUAGAAA,0.0806 ± 0.019
6,UCCUGGAUGAGGAAGCAUAGUAUUUAGUAA,0.0509 ± 0.013
7,UCCUGGAUCAGGUUGGAUAGUAUUUAGUUA,0.164 ± 0.013
8,UCCUGGAUGUCCUUGCAUAUAUUUAGUUA,0.00185 ± 0.0071
9,UCCUGGUACAGCAUGCAUAGUAUUAAGUUA,0.292 ± 0.06
10,UCCUGGAUGUCGAAGGAUAGUUUUUAGUUA,0.000282 ± 0.016
11,UCCUGCUUCAGCAUGCAUAGUAUUUAGUUA,0.291 ± 0.015
12,UCCUCCUACAGCUUGCAUAGUAUUUAGUUU [g2:g26:cont:t1U],0.35 ± 0.02
13,UCCUGGAUGUCGAUGCAUAGUAUUAAGUUA,0.122 ± 0.017
14,UCCUGGAACAGGAAGCAUAGUAUUUAGUUA,0.199 ± 0.016

# Same assay, conditions: guide: L1MC piRNA 5'p-UAACUAAAUACUAUGCAAGCUGUAGG; auxiliary factor: none (no GTSF1)
row,Sequence,pre-steady-state target cleavage rate
1,UCCUGGAUGUCGUUGCAUAGAAAUUAGUUA,0.000682 ± 0.0084
2,UCCUGCUACAGCUUGCAUAGUAUUGUAGUUA,0.00114 ± 0.0077
3,UCCUGGAUGUCGAACCAUAGUUUUUAGUAA,< 0.0001
4,UCCUGGAUGUCGAUGCAUAGUUUUUAGAUA,0.00105 ± 0.005
5,UCCUGGAUGUCGAAGCAUAGUAUUUCGUUA,0.00116 ± 0.0052
6,UCCUCCAACAGCUUCCAUAGUAUUUAGUUA,0.0016 ± 0.004
7,UCCUGGAUGUCCUUAGCAUAGUAUUUAGUUA,0.00307 ± 0.0025
8,UCCUGCUACUCCUUGCAUAGUAUUUAGAAA,0.000998 ± 0.0051
9,UCCUGGAUGAGGAAGCAUAGUAUUUAGUAA,0.00237 ± 0.0037
10,UCCUGGAUCAGGUUGGAUAGUAUUUAGUUA,0.0112 ± 0.0027
11,UCCUGGAUGUCCUUGCAUAUAUUUAGUUA,0.000744 ± 0.0062
12,UCCUGGAUGACCUUGCAUAGUAUUUAGAAA,0.000996 ± 0.0064
13,UCCUGGAUGUCGAAGGAUAGUUUUUAGUUA,0.000216 ± 0.02
14,UCCUCCUACAGCUUGCAUAGAAUUUAGUAA,0.00132 ± 0.0036
15,UCCUGGAUGUCGAACCAUUCUAUUUAGUUA,< 0.0001
16,UCCUGCUACAGCUUGGAUAGUAUUUACAAA,0.000365 ± 0.011
17,UCCUCCUACAGCUUGCAUAGUUUUUACUUA,0.00118 ± 0.0052
18,UCCUGGAUGUCGAACCAUAGUAUUUGAGUUA,0.000151 ± 0.023
19,UCCUGGUACAGCUUGCUAUAGUAUUUAGUUA,0.00179 ± 0.0038
20,UCCUCCUACAGCUUGCAUUCUAUUUUCAAA,0.000467 ± 0.0095
21,UCCUGGAACAGCUUGCGAUAGUAUUUAGUUA,0.000566 ± 0.01
22,UCCUGCUUCAGCAUGCAUAGUAUUUAGUUA,0.0121 ± 0.0034
23,UCCUGGUACAGCUUGCAUAGUAUUUUGUAA,0.00164 ± 0.0048
24,UCCUGGAUCAGCUUGCAUACAAUUUUCAAA,0.000161 ± 0.017
25,UCCUGGAUGUCGAUGCAUAGUAUUAAGUUA,0.0035 ± 0.0025
26,UCCUGGAACAGGAAGCAUAGUAUUUAGUUA,0.00491 ± 0.0024
